Source: patent US20140235578A1, “METHODS FOR TREATING NEOPLASIA AND FOR IDENTIFYING COMPOSITIONS USEFUL IN SUCH THERAPY” (priority 2007, published 2014)
Some entries share one result that the patent states for a list of compounds.

Test system: H9C2 cardiomyocytes
Experiment: γ-H2AX DNA damage signal by Western blotting
Format: cell-based
Details: bortezomib 1 μM or MG132 4 μM, added 30 min prior
Method: Cell lysates were analyzed by Western blotting using anti-γ-H2AX or anti-α-tubulin antibody (for assessing protein loading). […] Cells were then lysed and analyzed by Western blotting using anti-γ-H2AX or anti-α-tubulin antibody. […] Cells were then lysed and analyzed by Western blotting using anti-γ-H2AX or anti-α-tubulin antibody.
Vitamin C and NAC were added 30 min prior to doxorubicin. Cell lysates were then analyzed by Western blotting using anti-γ-H2AX or anti-α-tubulin antibody. […] Cell lysates were then analyzed by Western blotting (upper panel) using anti-γ-H2AX or anti-α-tubulin antibody. Quantification of γ-H2AX signals is shown in the lower panel. C, H9C2 cells were treated with 0.1% DMSO (labeled DMSO), bortezomib (1 μM) or MG132 (4 μM) for 30 min, followed by co-treatment with either 0.1% DMSO (labeled control) or 0.5 μM doxorubicin (labeled Doxo) for 1.5 hrs. Neutral comet assay was then performed as described in Materials and Methods. The average comet tail moments were plotted as histograms (mean±SEM). *p-value<0.001, t-test.

CC(C)C[C@H](NC(=O)[C@H](Cc1ccccc1)NC(=O)c1cnccn1)B(O)O [bortezomib]
reduction of the γ-H2AX signal induced by doxorubicin and VP-16: more than 50%
